The record followed here is article PMC7600810.

Protein sequences, listed by entry. Tags and fused reporters are not part of them.
UniProt Q9UBN7: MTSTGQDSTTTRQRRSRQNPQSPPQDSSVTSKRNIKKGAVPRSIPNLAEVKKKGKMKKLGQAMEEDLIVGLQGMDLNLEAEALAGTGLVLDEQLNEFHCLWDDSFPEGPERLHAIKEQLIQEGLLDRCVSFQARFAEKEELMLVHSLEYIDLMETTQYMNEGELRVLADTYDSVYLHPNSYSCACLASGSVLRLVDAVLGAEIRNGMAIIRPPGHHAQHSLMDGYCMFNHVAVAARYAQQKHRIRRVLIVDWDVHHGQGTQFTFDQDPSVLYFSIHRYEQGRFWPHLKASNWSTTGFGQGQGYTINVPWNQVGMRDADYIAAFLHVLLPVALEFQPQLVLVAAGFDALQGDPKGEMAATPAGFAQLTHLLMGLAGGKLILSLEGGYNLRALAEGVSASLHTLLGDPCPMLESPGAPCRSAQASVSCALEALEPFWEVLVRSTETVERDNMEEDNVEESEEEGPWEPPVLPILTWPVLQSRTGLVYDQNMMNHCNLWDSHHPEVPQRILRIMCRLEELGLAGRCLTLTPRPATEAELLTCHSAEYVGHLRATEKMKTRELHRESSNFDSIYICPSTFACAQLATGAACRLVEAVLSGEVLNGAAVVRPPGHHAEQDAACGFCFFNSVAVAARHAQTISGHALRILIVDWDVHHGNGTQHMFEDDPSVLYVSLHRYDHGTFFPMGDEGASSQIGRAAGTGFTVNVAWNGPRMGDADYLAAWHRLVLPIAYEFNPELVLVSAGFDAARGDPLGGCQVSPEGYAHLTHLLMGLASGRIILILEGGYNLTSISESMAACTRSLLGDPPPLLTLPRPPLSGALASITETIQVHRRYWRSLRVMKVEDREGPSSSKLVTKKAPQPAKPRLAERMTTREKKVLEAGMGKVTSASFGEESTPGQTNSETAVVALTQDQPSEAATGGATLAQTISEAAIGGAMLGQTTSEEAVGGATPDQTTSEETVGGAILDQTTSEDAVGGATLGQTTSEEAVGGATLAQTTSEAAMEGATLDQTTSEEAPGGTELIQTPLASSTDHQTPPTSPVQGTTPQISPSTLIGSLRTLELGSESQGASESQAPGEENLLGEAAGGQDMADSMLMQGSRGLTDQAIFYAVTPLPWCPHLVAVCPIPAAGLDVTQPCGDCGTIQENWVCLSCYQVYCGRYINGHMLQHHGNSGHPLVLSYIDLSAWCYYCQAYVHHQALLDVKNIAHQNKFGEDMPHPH

This experiment has as its target T1, Flag-tagged Chk1 (UniProt O14757).
T1 sequence: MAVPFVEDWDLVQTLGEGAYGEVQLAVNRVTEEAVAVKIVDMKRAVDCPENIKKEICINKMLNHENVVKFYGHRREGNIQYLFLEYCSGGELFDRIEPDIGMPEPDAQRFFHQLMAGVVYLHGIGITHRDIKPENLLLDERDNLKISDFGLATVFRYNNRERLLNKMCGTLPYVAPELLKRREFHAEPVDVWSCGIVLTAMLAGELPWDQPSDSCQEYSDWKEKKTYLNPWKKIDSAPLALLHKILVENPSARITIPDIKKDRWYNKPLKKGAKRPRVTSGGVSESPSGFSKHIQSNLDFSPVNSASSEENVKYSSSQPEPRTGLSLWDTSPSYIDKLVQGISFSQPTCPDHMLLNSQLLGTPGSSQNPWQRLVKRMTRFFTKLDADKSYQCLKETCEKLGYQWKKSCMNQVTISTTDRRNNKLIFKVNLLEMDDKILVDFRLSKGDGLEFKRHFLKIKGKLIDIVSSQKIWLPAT
Kind of experiment: co-IP; Flag-Chk1 and HA-HDAC6 co-transfected into 293T cells, 48 h; lysates incubated with HA-coated or Flag-coated agarose beads; blot probed for the reciprocal tag.

No constants are given. Whether binding was seen depends on the method and setting. In cells and extracts the contact can be indirect. Some results given as binding are weak or reduced against the parent protein; the word gives no strength. Sequences can lack the tags named with a protein.

Consider “HA-tagged HDAC6 (from UniProt Q9UBN7 1-1215)”, for which the binding result was “binds”.
